The text below walks through data of doi:10.1101/2020.12.31.425005 (bioRxiv, 2020).

The experiment deals with YhcB fused to SPA-tag, chromosomally at the C-terminus (E. coli) (UniProt P0ADW3). Kind of experiment: affinity purification with mass spectrometry.

These are yes or no findings as the source states them, for the method shown. Binding seen in cells or lysates may run through a third protein. Here binding means that the protein was enriched with, or labelled near, the bait; the list need not be complete. A no says only that the protein was not detected with the bait. Tags and fused reporters may be left off the sequences shown.

B1: YhcB fused to SPA-tag, chromosomally at the C-terminus (protein, UniProt P0ADW3 1-132)
chain: MTWEYALIGLVVGIIIGAVAMRFGNRKLRQQQALQYELEKNKAELDEYREELVSHFARSAELLDTMAHDYRQLYQHMAKSSSSLLPELSAEANPFRNRLAESEASNDQAPVQMPRDYSEGASGLLRTGAKRD
Regarding B1, the binding result is “no binding”.
